Four molecules from doi:10.1101/346619 can be followed below.

Amino acid sequences for entries named in this document (tags omitted). A change or cut given only in a name is not applied to a line headed by its entry.
UniProt O75376, whole entry: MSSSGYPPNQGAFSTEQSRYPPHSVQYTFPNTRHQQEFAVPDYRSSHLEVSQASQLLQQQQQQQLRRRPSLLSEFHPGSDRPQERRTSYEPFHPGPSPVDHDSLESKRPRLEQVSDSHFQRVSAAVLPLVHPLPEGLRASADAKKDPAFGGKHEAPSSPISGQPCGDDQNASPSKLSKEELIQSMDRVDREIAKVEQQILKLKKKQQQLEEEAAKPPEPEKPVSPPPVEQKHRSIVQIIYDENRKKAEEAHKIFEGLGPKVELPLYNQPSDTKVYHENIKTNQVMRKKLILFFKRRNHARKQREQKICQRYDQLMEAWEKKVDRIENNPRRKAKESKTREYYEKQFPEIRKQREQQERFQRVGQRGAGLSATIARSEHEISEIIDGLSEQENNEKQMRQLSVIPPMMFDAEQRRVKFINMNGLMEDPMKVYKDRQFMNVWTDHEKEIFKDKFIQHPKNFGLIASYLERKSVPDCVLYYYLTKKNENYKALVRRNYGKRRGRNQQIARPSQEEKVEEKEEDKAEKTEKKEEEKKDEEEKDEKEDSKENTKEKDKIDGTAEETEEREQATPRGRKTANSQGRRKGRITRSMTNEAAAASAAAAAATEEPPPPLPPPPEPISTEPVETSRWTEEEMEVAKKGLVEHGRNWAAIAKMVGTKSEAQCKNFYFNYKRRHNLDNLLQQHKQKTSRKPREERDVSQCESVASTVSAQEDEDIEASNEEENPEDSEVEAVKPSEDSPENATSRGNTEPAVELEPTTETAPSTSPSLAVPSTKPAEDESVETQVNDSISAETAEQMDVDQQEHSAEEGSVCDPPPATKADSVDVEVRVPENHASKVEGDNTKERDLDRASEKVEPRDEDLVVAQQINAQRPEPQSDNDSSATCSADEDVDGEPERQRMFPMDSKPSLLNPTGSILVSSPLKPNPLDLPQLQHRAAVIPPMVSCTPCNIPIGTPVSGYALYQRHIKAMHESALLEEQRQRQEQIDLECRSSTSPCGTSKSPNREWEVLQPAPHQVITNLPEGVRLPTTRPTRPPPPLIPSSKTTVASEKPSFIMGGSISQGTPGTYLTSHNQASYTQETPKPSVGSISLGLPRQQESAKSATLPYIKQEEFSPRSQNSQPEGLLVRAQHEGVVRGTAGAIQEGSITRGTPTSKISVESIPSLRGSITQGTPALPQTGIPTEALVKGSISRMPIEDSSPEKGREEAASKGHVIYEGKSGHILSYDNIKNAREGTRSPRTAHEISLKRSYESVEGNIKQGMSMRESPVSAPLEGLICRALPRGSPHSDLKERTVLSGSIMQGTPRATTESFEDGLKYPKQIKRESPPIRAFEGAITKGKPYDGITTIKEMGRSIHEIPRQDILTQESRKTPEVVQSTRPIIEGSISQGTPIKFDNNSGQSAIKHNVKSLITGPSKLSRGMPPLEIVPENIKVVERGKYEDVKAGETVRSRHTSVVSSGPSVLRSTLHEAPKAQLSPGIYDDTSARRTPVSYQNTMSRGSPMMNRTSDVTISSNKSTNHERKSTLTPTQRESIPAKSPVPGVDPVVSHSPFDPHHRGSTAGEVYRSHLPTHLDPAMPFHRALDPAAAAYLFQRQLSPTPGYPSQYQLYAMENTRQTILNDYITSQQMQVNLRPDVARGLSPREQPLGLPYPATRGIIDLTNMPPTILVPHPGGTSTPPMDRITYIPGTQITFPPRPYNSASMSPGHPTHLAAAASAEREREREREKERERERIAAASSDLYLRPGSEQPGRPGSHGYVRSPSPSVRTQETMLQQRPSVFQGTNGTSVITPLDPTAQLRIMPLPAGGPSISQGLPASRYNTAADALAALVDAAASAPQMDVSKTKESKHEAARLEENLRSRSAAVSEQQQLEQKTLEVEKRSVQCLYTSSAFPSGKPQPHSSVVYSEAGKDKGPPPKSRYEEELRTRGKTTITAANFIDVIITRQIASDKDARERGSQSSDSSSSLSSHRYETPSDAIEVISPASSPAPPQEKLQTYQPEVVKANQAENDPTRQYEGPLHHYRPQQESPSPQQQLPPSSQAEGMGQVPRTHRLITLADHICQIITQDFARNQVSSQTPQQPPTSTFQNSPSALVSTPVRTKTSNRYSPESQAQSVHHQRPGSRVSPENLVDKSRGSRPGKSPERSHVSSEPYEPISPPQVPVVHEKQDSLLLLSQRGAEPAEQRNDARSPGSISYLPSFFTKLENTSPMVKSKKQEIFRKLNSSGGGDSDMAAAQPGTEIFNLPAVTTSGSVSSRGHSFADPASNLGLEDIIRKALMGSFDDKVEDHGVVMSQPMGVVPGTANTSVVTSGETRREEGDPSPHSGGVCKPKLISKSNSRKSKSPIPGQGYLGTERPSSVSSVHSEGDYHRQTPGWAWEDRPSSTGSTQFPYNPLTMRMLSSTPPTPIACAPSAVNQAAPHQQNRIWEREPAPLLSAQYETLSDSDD

Test [1] addresses T1, Sin3A, two-hybrid fusion (mouse) (UniProt Q60520).
T1 sequence: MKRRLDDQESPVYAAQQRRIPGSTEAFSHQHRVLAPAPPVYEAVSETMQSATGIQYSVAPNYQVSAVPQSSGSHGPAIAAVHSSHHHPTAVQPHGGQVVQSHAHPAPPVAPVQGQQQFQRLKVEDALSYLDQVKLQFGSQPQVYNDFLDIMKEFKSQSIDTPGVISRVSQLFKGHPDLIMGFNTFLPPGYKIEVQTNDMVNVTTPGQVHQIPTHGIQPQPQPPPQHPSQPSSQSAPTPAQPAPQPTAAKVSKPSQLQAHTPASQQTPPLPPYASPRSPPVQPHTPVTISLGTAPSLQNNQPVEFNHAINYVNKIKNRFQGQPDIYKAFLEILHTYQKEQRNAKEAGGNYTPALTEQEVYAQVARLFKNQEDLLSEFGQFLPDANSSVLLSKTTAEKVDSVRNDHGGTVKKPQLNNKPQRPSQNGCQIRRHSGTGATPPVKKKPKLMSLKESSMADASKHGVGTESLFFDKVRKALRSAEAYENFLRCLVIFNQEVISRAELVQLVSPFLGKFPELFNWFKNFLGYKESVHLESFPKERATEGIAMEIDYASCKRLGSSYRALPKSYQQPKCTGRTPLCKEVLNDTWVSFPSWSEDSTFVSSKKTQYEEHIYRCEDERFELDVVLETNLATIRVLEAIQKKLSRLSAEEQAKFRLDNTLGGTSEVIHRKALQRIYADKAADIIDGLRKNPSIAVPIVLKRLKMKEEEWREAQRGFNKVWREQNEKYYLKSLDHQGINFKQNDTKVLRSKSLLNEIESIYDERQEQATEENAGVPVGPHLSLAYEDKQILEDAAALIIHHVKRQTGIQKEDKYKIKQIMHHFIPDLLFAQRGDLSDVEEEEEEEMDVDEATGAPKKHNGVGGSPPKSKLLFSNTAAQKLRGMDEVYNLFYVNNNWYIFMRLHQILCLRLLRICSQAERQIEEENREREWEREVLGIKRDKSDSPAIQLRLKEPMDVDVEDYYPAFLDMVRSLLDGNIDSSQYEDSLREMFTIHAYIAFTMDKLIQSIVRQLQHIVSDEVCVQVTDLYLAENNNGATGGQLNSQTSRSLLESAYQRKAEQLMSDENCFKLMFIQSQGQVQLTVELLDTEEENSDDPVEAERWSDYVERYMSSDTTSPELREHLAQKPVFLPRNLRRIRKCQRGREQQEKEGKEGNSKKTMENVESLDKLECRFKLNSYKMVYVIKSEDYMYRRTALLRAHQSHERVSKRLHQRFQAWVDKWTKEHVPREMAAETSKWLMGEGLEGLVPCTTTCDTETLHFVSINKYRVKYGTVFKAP
Put plainly: two-hybrid.

In test [2] the target is T2, NCoR1 carboxy-terminal (C) domain (NCoR1-C) (mouse) (UniProt Q60974).
T2 sequence: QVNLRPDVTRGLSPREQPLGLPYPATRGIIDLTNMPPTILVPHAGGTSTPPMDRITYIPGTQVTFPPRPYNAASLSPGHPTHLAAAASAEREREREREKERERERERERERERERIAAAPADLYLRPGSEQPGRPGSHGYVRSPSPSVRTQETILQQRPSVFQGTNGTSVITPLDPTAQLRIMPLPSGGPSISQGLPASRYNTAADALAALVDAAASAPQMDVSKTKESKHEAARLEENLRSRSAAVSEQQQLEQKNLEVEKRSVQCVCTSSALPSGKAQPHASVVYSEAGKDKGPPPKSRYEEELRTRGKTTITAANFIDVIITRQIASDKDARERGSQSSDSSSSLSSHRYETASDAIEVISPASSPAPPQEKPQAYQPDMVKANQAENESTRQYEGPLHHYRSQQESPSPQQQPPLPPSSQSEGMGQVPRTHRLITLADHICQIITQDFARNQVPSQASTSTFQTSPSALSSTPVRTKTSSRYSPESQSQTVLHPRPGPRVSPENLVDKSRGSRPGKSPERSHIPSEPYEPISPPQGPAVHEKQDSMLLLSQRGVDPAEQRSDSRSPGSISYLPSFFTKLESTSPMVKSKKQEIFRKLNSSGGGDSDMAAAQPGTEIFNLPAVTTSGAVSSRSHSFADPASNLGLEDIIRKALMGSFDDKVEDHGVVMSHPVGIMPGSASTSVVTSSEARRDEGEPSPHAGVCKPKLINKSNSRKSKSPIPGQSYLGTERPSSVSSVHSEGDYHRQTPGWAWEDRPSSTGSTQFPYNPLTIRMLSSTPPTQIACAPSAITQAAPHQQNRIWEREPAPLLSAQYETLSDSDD
Description: two-hybrid.

Test [3] has as its target nuclear receptor corepressor-1 (NCoR1), endogenous (human (endogenous in HUDEP-2)) (UniProt O75376). Put plainly: co-IP.
Test [4] addresses T3, TR4 (NR2C2), two-hybrid fusion (UniProt P49117).
T3 sequence: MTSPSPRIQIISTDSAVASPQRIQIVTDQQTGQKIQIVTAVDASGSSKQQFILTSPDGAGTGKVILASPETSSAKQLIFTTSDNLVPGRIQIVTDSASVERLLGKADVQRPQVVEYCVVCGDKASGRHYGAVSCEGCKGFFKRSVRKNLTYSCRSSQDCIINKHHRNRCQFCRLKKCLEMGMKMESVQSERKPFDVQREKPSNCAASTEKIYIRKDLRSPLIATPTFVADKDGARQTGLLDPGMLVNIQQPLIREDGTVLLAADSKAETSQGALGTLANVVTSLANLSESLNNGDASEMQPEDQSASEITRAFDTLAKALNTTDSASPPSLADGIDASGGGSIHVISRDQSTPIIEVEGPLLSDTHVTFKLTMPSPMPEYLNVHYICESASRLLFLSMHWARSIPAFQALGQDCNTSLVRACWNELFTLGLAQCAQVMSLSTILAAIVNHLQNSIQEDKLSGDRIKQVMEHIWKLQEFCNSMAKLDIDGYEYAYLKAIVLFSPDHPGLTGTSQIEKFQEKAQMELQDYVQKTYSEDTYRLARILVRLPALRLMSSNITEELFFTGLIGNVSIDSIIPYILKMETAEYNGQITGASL
Put plainly: two-hybrid.

For test [5], the target named is T4, TR2 (NR2C1), two-hybrid fusion (UniProt Q505F1).
T4 sequence: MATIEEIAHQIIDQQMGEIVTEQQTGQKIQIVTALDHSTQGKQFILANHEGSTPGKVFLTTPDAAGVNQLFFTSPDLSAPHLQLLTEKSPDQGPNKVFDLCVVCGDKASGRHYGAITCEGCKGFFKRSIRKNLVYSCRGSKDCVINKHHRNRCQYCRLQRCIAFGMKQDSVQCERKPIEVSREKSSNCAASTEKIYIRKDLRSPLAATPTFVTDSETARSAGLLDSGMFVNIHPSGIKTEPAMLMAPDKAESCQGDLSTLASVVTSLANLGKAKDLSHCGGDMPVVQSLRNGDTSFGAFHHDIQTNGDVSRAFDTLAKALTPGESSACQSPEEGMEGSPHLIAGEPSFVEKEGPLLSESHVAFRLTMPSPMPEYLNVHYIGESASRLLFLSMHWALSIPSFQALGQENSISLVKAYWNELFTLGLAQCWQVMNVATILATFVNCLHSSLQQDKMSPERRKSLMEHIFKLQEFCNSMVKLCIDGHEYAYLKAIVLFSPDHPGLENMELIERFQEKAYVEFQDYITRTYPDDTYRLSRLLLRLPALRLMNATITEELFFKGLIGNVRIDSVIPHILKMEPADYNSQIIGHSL
Put plainly: two-hybrid.

Numbering of substitutions follows the chain as printed. These are yes or no findings as the source states them, for the method shown. For some assays here: In cells and extracts the contact can be indirect. Some entries that bind do so weakly or less than the wild type. For some assays here: Sequences can lack the tags named with a protein.

B1: TR2 (NR2C1), two-hybrid fusion (protein, UniProt Q505F1 1-590)
chain: T4 sequence
B1: the binding result in test [1] and in test [2] was “binds” throughout.

B2: TR4 (NR2C2), two-hybrid fusion (protein, UniProt P49117 1-596)
chain: T3 sequence
Regarding B2, the binding entry in test [1] and in test [2] was “binds” each time.

B3: TR4 (NR2C2), endogenous (protein, UniProt P49116 1-596)
chain: T3 sequence with S47P, A106T, S156N, A263T, A296T, M299I, A326S, P328S, A337T, G510S
B3: in test [3], the binding entry is “binds”.

B4: NCoR1 carboxy-terminal (C) domain (NCoR1-C) (domain or fragment, UniProt Q60974 1630-2453)
chain: T2 sequence
In the case of B4, the binding entry in test [1], in test [4] and in test [5] was “binds” in each case.
